The text below walks through data of article PMC9916724.

The assay addresses integrin αvβ5 (human (endogenous in cultured human podocytes)). The experiment in a line: co-IP; human podocytes lysed in IP lysis buffer; immunoprecipitation with anti-GRP78 or anti-αvβ5 overnight at 4 °C, protein G-Sepharose beads 1 h at 4 °C; immunoblot with anti-ISM; basal conditions; negative control with unspecific antibody. (In western blotting, separated proteins are transferred to a membrane and probed.)

These are yes or no findings as the source states them, for the method shown. Binding seen in cells or lysates may run through a third protein. Binding can be weak; no strength is given.

B1: Isthmin-1 (ISM1) (protein, UniProt B1AKI9 30-464)
chain: ADGPDAAAGNASQAQLQNNLNVGSDTTSETSFSLSKEAPREHLDHQAAHQPFPRPRFRQETGHPSLQRDFPRSFLLDLPNFPDLSKADINGQNPNIQVTIEVVDGPDSEADKDQHPENKPSWSVPSPDWRAWWQRSLSLARANSGDQDYKYDSTSDDSNFLNPPRGWDHTAPGHRTFETKDQPEYDSTDGEGDWSLWSVCSVTCGNGNQKRTRSCGYACTATESRTCDRPNCPGIEDTFRTAATEVSLLAGSEEFNATKLFEVDTDSCERWMSCKSEFLKKYMHKVMNDLPSCPCSYPTEVAYSTADIFDRIKRKDFRWKDASGPKEKLEIYKPTARYCIRSMLSLESTTLAAQHCCYGDNMQLITRGKGAGTPNLISTEFSAELHYKVDVLPWIICKGDWSRYNEARPPNNGQKCTESPSDEDYIKQFQEAREY
For the molecule B1, the binding result is on record as “binds”.
